Test results reported in doi:10.1101/2021.12.02.470928.
These are yes or no findings as the source states them, for the method shown.

Columns and labels:
Test in all cases: BLI
[1] = biological target: T1, MBI peptide (Biotin-…)
T1 sequence (peptide, biotin on the N-terminus): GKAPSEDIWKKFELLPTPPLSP

[2] = biological target: T2, MBII peptide (Biotin-…)
T2 sequence (peptide, biotin on the N-terminus): IIIQDCMWSGFSAAAK

[3] = biological target: T3, MBIIIa peptide (Biotin-…)
T3 sequence (peptide, biotin on the N-terminus): CIDPSVVFPYPL

[4] = biological target: T4, MBIIIb peptide (Biotin-…)
T4 sequence (peptide, biotin on the N-terminus): EEEIDVVSVEKR

[5] = biological target: T5, MBIV peptide (Biotin-…)
T5 sequence (peptide, biotin on the N-terminus): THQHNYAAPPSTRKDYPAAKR

Measured: binding

B1: PNUTS(1-148), PNUTS amino-terminal domain (PAD) (domain or fragment, UniProt Q96QC0 1-148)
chain: MGSGPIDPKELLKGLDSFLNRDGEVKSVDGISKIFSLMKEARKMVSRCTYLNILLQTRSPEILVKFIDVGGYKLLNNWLTYSKTTNNIPLLQQILLTLQHLPLTVDHLKQNNTAKLVKQLSKSSEDEELRKLASVLVSDWMAVIRSQS
no binding: [1] | [2] | [3] | [4] | [5]
